The record followed here is patent US20240408138A1 (UNIVERSITY OF CHICAGO, published 2024).

Protein sequences, listed by entry. Tags and fused reporters are not part of them. Residues count along the entry.
UniProt P02769, residues 25-607: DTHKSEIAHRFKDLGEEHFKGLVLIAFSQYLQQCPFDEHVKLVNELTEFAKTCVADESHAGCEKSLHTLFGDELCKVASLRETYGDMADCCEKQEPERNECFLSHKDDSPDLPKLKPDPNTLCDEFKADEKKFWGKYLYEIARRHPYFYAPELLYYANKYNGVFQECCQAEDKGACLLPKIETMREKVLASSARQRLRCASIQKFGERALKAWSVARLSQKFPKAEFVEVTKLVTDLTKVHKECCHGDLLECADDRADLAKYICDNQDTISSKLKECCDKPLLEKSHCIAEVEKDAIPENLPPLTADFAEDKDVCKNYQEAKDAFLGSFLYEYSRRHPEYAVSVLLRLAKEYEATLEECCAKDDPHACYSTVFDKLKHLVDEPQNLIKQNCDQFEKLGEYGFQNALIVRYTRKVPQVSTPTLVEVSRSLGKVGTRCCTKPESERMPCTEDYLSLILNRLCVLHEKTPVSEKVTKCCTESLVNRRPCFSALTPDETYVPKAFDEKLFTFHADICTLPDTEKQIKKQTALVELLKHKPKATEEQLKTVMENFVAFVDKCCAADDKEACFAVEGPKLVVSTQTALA

Where a chain is given by its changes, count along the chain named. No constants are given. Whether binding was seen depends on the method and setting.

B1: INC-N-34 (Fab, V domains shown)
VH: EVQLVESGGGLVQPGGSLRLSCAASGFNVSSSSIHWVRQAPGKGLEWVASIYPSSGYTSYADSVKGRFTISADTSKNTAYLQMNSLRAEDTAVYYCARKLAYYWGAQWSYSGYKGMDYWGQGTLVTVSS
VL: DIQMTQSPSSLSASVGDRVTITCRASQSVSSAVAWYQQKPGKAPKLLIYSASSLYSGVPSRFSGSRSGTDFTLTISSLQPEDFATYYCQQSYWYPITFGQGTKVEIKR
notes: also called INC-N-34 Fab
B2: INC-N-08 (Fab, V domains shown)
VH: EVQLVESGGGLVQPGGSLRLSCAASGFNFSSSSIHWVRQAPGKGLEWVASIYSYYGSTSYADSVKGRFTISADTSKNTAYLQMNSLRAEDTAVYYCARWMYKGYIFYQYFGLDYWGQGTLVTVSS
VL: B1 VL with Y92F, W93S, Y94N, P95L
notes: also called INC-N-08 Fab
B3: INC-N-06 (Fab, V domains shown)
VH: EVQLVESGGGLVQPGGSLRLSCAASGFNISYSSIHWVRQAPGKGLEWVASIYPYSGSTYYADSVKGRFTISADTSKNTAYLQMNSLRAEDTAVYYCARWSLYGKWYYWWYGLDYWGQGTLVTVSS
VL: B1 VL with S91G, Y92S, W93Y
notes: also called INC-N-06 Fab
B4: INC-N-19 (Fab, V domains shown)
VH: EVQLVESGGGLVQPGGSLRLSCAASGFNVYYSYIHWVRQAPGKGLEWVASIYPYSGYTSYADSVKGRFTISADTSKNTAYLQMNSLRAEDTAVYYCARWRWPGLQFGYGMDYWGQGTLVTVSS
VL: B1 VL with Y94W, I96L
notes: also called INC-N-19 Fab
B5: INC-N-38 (Fab, V domains shown)
VH: EVQLVESGGGLVQPGGSLRLSCAASGFNVYSSSIHWVRQAPGKGLEWVAYISSYSGYTYYADSVKGRFTISADTSKNTAYLQMNSLRAEDTAVYYCARTIYSSSYFYTWFIYGAAFDYWGQGTLVTVSS
VL: B1 VL with Y92W, W93M
notes: also called INC-N-38 Fab
B6: INC-N-14 (Fab, V domains shown)
VH: EVQLVESGGGLVQPGGSLRLSCAASGFNVSSYSIHWVRQAPGKGLEWVASIYPSSGSTYYADSVKGRFTISADTSKNTAYLQMNSLRAEDTAVYYCARKGYGWFYYYIEWYSPYAFDYWGQGTLVTVSS
VL: B1 VL with W93Y, I96V
notes: light chain shared with INC-N-18; also called INC-N-14 Fab
B7: INC-N-12 (Fab, V domains shown)
VH: EVQLVESGGGLVQPGGSLRLSCAASGFNFSSSSIHWVRQAPGKGLEWVASIYSYSGSTYYADSVKGRFTISADTSKNTAYLQMNSLRAEDTAVYYCARYHWYYYWYWGGVSPAMDYWGQGTLVTVSS
VL: B1 VL with S91M, Y92R, W93Y
notes: also called INC-N-12 Fab

The assay has as its target BSA (Bos taurus) (UniProt P02769). Description: single-point protein ELISA, BSA control wells. In general terms: In an ELISA, binding on a coated surface is turned into a signal by an enzyme label.
Take B1: the binding entry was “no binding (tested: 200 nM)”.

With B2, the binding entry is given as “no binding (tested: 200 nM)”.

As to B3, the binding result was “no binding (tested: 200 nM)”.

With B4, the binding entry is on record as “no binding (tested: 200 nM)”.

B5: the binding entry is “no binding (tested: 200 nM)”.

Consider B6, for which the binding entry is listed as “no binding (tested: 200 nM)”.

Take B7: the binding entry is recorded as “no binding (tested: 200 nM)”.
